This test has as its target IL-15RaSushi (Miltenyi) (UniProt Q13261). Put plainly: ELISA of FIG. 3B, IL-15RaSushi coated 100 ng/well by the legend (the sentence prints IL-15), anti-human kappa HRP detection. (In an ELISA, binding on a coated surface is turned into a signal by an enzyme label.)

Sequences of proteins named here, by UniProt entry; tags and fusion partners are left off. Residues count along the entry.
UniProt Q13261, residues 31-95: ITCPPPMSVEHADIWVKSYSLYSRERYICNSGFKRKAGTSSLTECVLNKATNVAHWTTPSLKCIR

These are yes or no findings as the source states them, for the method shown. Some results given as binding are weak or reduced against the parent protein; the word gives no strength.

B1: BSIC-13 Syn(null) (antibody, human IgG1, kappa, V domains shown)
VH: QVTLRESGPALVKPTQTLTLTCTFSGFSLSTSGMSVGWIRQPPGKALEWLADIWWDDKKDYNPSLKSRLTISKDTSKNQVVLKVTNMDPADTATYYCARSMITNWYFDVWGAGTTVTVSS
VL: DIQMTQSPSTLSASVGDRVTITCKCQLSVGYMHWYQQKPGKAPKLLIYDTSKLASGVPSRFSGSGSGTEFTLTISSLQPDDFATYYCFQGSGYPFTFGGGTKLEIKR
Take B1: the binding result is on record as “binds”.

The record behind these values is patent publication US20220289838A1.
